From patent US20240270820A1 (ELANCO US, published 2024)
No constants are given. Whether binding was seen depends on the method and setting. Some binding calls cover weakened binding; strength is not graded here. Sequences can lack the tags named with a protein.

Key:
[1] = molecular target: T1, canine IL4 with C-terminal poly-His tag (canine) (UniProt O77762); assay: BLI sequential binding; biotinylated fusion on streptavidin tips, IL4 at 30 µg/mL in PBS
T1 sequence: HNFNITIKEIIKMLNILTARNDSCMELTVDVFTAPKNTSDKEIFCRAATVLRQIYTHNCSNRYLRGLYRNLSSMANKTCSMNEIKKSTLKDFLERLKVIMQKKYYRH

[2] = molecular target: T1, canine IL4 with C-terminal poly-His tag (canine); assay: BLI (Octet), summary sentence of Example 4
[3] = molecular target: T1, canine IL4 with C-terminal poly-His tag (canine); assay: BLI (Octet)

Measured: binding

B1: canine IL4R-IL13R-IgGB (Fc fusion)
chain: SGSVKVLHEPSCFSDYISTSVCQWKMDHPTNCSAELRLSYQLDFMGSENHTCVPENREDSVCVCSMPIDDAVEADVYQLDLWAGQQLLWSGSFQPSKHVKPRTPGNLTVHPNISHTWLLMWTNPYPTENHLHSELTYMVNVSNDNDPEDFKVYNVTYMGPTLRLAASTLKSGASYSARVRAWAQTYNSTWSDWSPSTTWLNYYEPGGGSGTETQPPVTNLSVSVENLCTVIWTWDPPEGASPNCTLRYFSHFDNKQDKKIAPETHRSKEVPLNERICLQVGSQCSTNESDNPSILVEKCTPPPEGDPESAVTELQCVWHNLSYMKCTWLPGRNTSPDTNYTLYYWHSSLGKILQCEDIYREGQHIGCSFALTNLKDSSFEQHSVQIVVKDNAGKIRPSFNIVPLTSHVKPDPPHIKRLFFQNGNLYVQWKNPQNFYSRCLSYQVEVNNSQTETNDIFYVEEAKCQNSEFEGNLEGTICFMVPGVLPDTLNTVRIRVRTNKLCYEDDKLWSNWSQAMSIGENTDPTPKRENGRVPRPPDCPKCPAPEMLGGPSVFIFPPKPKDTLLIARTPEVTCVVVDLDPEDPEVQISWFVDGKQMQTAKTQPREEQFNGTYRVVSVLPIGHQDWLKGKQFTCKVNNKALPSPIERTISKARGQAHQPSVYVLPPSREELSKNTVSLTCLIKDFFPPDIDVEWQSNGQQEPESKYRTTPPQLDEDGSYFLYSKLSVDKSRWQRGDTFICAVMHEALHNHYTQESLSHSPGK
notes: also called canine IL4R-IL13R-Fc; Canine IL4R-IL13R-Fc (SINK)
binds: [1] | [2] | [3]

B2: canine IL13R-IL4R-IgGB (Fc fusion)
chain: TETQPPVTNLSVSVENLCTVIWTWDPPEGASPNCTLRYFSHFDNKQDKKIAPETHRSKEVPLNERICLQVGSQCSTNESDNPSILVEKCTPPPEGDPESAVTELQCVWHNLSYMKCTWLPGRNTSPDTNYTLYYWHSSLGKILQCEDIYREGQHIGCSFALTNLKDSSFEQHSVQIVVKDNAGKIRPSFNIVPLTSHVKPDPPHIKRLFFQNGNLYVQWKNPQNFYSRCLSYQVEVNNSQTETNDIFYVEEAKCQNSEFEGNLEGTICFMVPGVLPDTLNTVRIRVRTNKLCYEDDKLWSNWSQAMSIGENTDPTGGGSGSGSVKVLHEPSCFSDYISTSVCQWKMDHPTNCSAELRLSYQLDFMGSENHTCVPENREDSVCVCSMPIDDAVEADVYQLDLWAGQQLLWSGSFQPSKHVKPRTPGNLTVHPNISHTWLLMWTNPYPTENHLHSELTYMVNVSNDNDPEDFKVYNVTYMGPTLRLAASTLKSGASYSARVRAWAQTYNSTWSDWSPSTTWLNYYEPKRENGRVPRPPDCPKCPAPEMLGGPSVFIFPPKPKDTLLIARTPEVTCVVVDLDPEDPEVQISWFVDGKQMQTAKTQPREEQFNGTYRVVSVLPIGHQDWLKGKQFTCKVNNKALPSPIERTISKARGQAHQPSVYVLPPSREELSKNTVSLTCLIKDFFPPDIDVEWQSNGQQEPESKYRTTPPQLDEDGSYFLYSKLSVDKSRWQRGDTFICAVMHEALHNHYTQESLSHSPGK
notes: also called Canis lupus IL13R-IL4R-Fc; canine IL13R-IL4R-Fc
binds: [1] | [2] | [3]
